The other results are listed elsewhere or left out.
B1: il2ra_site1_2b5i_sap_26_mot_0e1366a1e871129823ff0d9eb171cf03_0001_1_000000050_0001_36_50_H_._23ebfa62fd02fe94bef511ea015e2715_0001_0001_0000500051_0000001_0_000 … (protein)
chain: SERFIEMVIRALRMGSPVAERAAKNLAKLLKRAGDLELFREFVERLLEETGDPAYEFLLEVLEET
B2: il2ra_site1_1z92_normal_mot_HHH_b1_03515_000000289_0001_1_19_H_._HHH_b1_04173_af2_0001_0000200014_0000001_0 (protein)
chain: SSSSSSEEQAAKAIVRAAVRANRLSEEQKEELEELAKELVERGLDPLEIIKILDRLAARLSSSSS
B3: il2ra_site1_1z92_sap_18_mot_HHH_b1_00368_000000203_0001_23_39_H_._d7cfadeb27be910639eb6e95e3396c32_0001_af2_0001_0000300014_0000001_0_0001 (protein)
chain: SSSSDEELEERVKQFAEELVKELGLDEHAREALEKDAEAAVRLGFSERSIKLALERAARRASSSS
B4: il2ra_site1_3nfp_normal_mot_HHH_b2_04366_af2_000000103_0001_1_19_H_._HHH_b1_03730_af2_0001_0000300009_0000001_0 (protein)
chain: SSSSDESERILEEAEELLKEAAEEGDPRRAQKILREAVRLLSELGNFEAVERLYEFVRELISSSS
B5: il2ra_site1_2b5i_sap_15_mot_HHH_b1_05188_af2_000000065_0001_43_56_H_._HHH_b2_08185_0001_0000400035_0000001_0_0001_af2pred_dldesign_0_af2pred (protein)
chain: SSSSAEVEARRAEVKARAAALLAAGRKREALELLFSAAKEAEEAGREDLYEELYELAKKLSSSSS
B6: il2ra_site1_2b5i_normal_mot_HHH_b1_00095_000000042_0001_1_14_H_._HHH_b1_08235_0001_0000300013_0000001_0_af2pred_dldesign_0_af2pred (protein)
chain: SSSSLREQLTRLQDIHDELAALGDEEAEDEVDRLYEEFARTKDPSLLDRAEALLEEAKKKSSSSS
B7: il2ra_site1_3nfp_sap_17_mot_HHH_b1_05070_af2_000000282_0001_43_57_H_._HHH_b1_00176_0001_0000300005_0000001_0_0001_af2pred_0001_af2pred_swapped (protein)
chain: SSSSDEEKQKAFRLLQEANRLAAKGNEEEAEKLLEEAKELVEEVGNEVLKRIIEEALKILSSSSS
B8: il2ra_site2_3nfp_sap_16_mot_HHH_b1_05628_af2_000000064_0001_19_35_H_._HHH_b1_05613_af2_0001_0000700016_0000001_0_0001 (protein)
chain: SSSSSEEELRELVEQLRELVERNDKEEFRRLLAEAAHLAFELGDAEVFFRLAELLYEIEGSSSSS
B9: il2ra_site1_1z92_sap_25_mot_HHH_b1_08133_000000119_0001_1_19_H_._HHH_b2_04294_0001_0000400037_0000001_0_0001_af2pred_0001_af2pred (protein)
chain: SSSSSSSEVEEEAEELLEELKERGDEKELKSLELLLRAVKRSQNPRLREFLKKALEEQSSSSSSS
B10: il2ra_site1_2b5i_normal_mot_0e5a94e4a5addaac739760efb25f0f5d_0001_000000289_0001_18_32_H_._HHH_b1_07823_0001_0000400013_0000001_0_af2pred_dldesign_0_af2pred (protein)
chain: SSSSSSLEELTKEASELVARSNDRELLKELTKLIYHLTMTKDPRLVEELEAFLARARAEESSSSS
B11: il2ra_site1_3nfp_normal_mot_46d73865503fbedcaf0f3a45445d594c_0001_af2_000000151_0001_1_12_H_._83e3d52192ce5e5dff776c34d7d6184e_0001_1_0001_0000300011_0000001_1_ … (protein)
chain: SEEEVLRKLEELAKTPEERALVRLIEQAVEVYNIPPEEALRLLLETLRKAGDPRAELVEELARLG
B12: il2ra_site1_1z92_sap_12_mot_HHH_b2_03933_000000056_0001_18_34_H_._651d3f7ee3e35a0effb0e65a459b730c_0001_1_0001_0000400083_0000001_0_0001_af2pred_0001_af2pred (protein)
chain: DEEEAEELLREILKEQGNHEALERLLEHAERTFGDPKEALKALIRVALQLTGDPRLEEAEKLVRK
B13: il2ra_site2_2erj_normal_mot_HHH_eva_0385_af2_000000151_0001_25_42_H_._HHH_b2_02181_0001_0000100006_0000001_0_af2pred_0001_af2pred (protein)
chain: SSSSSSEEERKEVEELLEEAKKIEDKEEAAKVLQEAAELADKIDDPEAVELVEEVLRKLSSSSSS
B14: il2ra_site1_3nfp_sap_9_mot_HHH_b1_04931_000000291_0001_38_56_H_._HHH_b2_07412_0001_0000500030_0000001_0_0001_af2pred_0001_af2pred_1 (protein)
chain: SSSSSSEEEEERVRELLERAKKIEDLREAEELFEEAVKIARELKDPELLRLVLEFAHEVSSSSSS
B15: il2ra_site2_2erj_normal_mot_HHH_b2_06726_000000006_0001_1_16_H_._HHH_b1_02692_0001_0000800011_0000001_0 (protein)
chain: SSSSDLEEEIRELLERIEKLLEEGNREEAISLILEASRLIIELGDEELERELSKLFVRLYSSSSS
B16: il2ra_site1_3nfp_sap_12_mot_119b7766384adbe86006a62bce89dba1_0001_af2_000000052_0001_18_32_H_._HHH_b2_01389_0001_0000200012_0000001_0_0001_af2pred_0001_af2pred_ … (protein)
chain: SEELLKELAERLGDPLVREVVELLEEALEKGDPEASREFDELLKRLLKEGIIPPEVVFEVLKELA
B17: il2ra_site1_1z92_sap_8_mot_HHH_b2_08173_af2_000000034_0001_21_37_H_._b26a303360aa2756ef5b79665ce52f45_0001_0001_0000100012_0000001_0_0001_af2pred_0001_af2pred_1 … (protein)
chain: PEALERDFERSREQGIPPRSVARALLRALRALGHPPEEVEELVRQVLERLLGDPEEAREVLEEAK
B18: il2ra_site1_1z92_sap_25_mot_HHH_b1_01245_000000029_0001_23_39_H_._HHH_b1_01234_af2_0001_0000400036_0000001_0_0001 (protein)
chain: SSSSSELREELEELIKKLEKMGSEFAVEQLRAKLERYERTGDEHFVRSALRIAERLHRAANSSSS
B19: il2ra_site1_2b5i_normal_mot_22370d59370c406a0c205a431f537cfa_0001_af2_000000027_0001_1_31_H_._HHH_b1_00762_af2_0001_0000100004_0000001_0 (protein)
chain: SSSSDNEEVRRATEIVWRLASRYHLSAEQIQELVRLLEKLLEKGVSLEEVEEELEKLAEELSSSS

Target: il2ra, P01589
Assay: yeast display titration

Row | Binder | apparent Kd
1 | B1 | inactive: no binding seen
2 | B2 | inactive: no binding seen
3 | B3 | inactive: no binding seen
4 | B4 | inactive: no binding seen
5 | B5 | inactive: no binding seen
6 | B6 | inactive: no binding seen
7 | B7 | inactive: no binding seen
8 | B8 | inactive: no binding seen
9 | B9 | inactive: no binding seen
10 | B10 | inactive: no binding seen
11 | B11 | inactive: no binding seen
12 | B12 | inactive: no binding seen
13 | B13 | inactive: no binding seen
14 | B14 | inactive: no binding seen
15 | B15 | inactive: no binding seen
16 | B16 | inactive: no binding seen
17 | B17 | inactive: no binding seen
18 | B18 | inactive: no binding seen
19 | B19 | inactive: no binding seen

Numbers 2–3 from above:
Row | Binder | apparent Kd
2 | B2 | inactive: no binding seen
3 | B3 | inactive: no binding seen

— publication PMC10163288
